From paper PMC9928087, “Plasmids manipulate bacterial behaviour through translational regulatory crosstalk” come the findings set out here.

Residue numbers refer to the chain shown, from its start. For at least one entry, the source does not settle the construct or the ends of the probe. For part of these data: The comparison behind a weaker result is the experiment's own reference, which may not be listed here. For part of these data: At least one verdict rests on a figure or table, not on a statement of the authors. For part of these data: Tags and fusion partners may be left off the protein sequences shown. For part of these data: The direction of at least one scale is not stated here.

The subject of data set [1] is T1, RsmQ (Pseudomonas fluorescens SBW25 plasmid pQBR103).
T1 sequence (looked up, limits assumed): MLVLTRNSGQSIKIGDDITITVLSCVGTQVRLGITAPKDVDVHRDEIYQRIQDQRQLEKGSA
In words: SPR (ReDCaT). The conditions noted are these: 100 nM protein, HBS-EP+ (10 mM HEPES, 150 mM NaCl, 3 mM EDTA, 0.05% v/v Tween 20, pH 7.4), 20 C, Biacore 8K, ReDCaT SA chip, high values mean tight binding, recombinant protein, protein details: C-terminal TEV site + 6xHis, folded or branched DNA, counted as no binding.

The test system of data set [2] is T2, RsmQ R44A (Pseudomonas fluorescens SBW25 plasmid pQBR103).
T2 sequence (looked up, limits assumed): T1 sequence (looked up, limits assumed) with R44A
In words: SPR (ReDCaT). The settings on record: 100 nM protein; HBS-EP+ (10 mM HEPES, 150 mM NaCl, 3 mM EDTA, 0.05% v/v Tween 20, pH 7.4), 20 C, Biacore 8K, ReDCaT SA chip; high values mean tight binding; recombinant protein; protein details: C-terminal TEV site + 6xHis; folded or branched DNA; counted as no binding. A general note: Surface plasmon resonance follows binding to a sensor surface in real time, without labels.

Data set [3] concerns T3, RsmQ H43A (Pseudomonas fluorescens SBW25 plasmid pQBR103).
T3 sequence (looked up, limits assumed): T1 sequence (looked up, limits assumed) with H43A
The data set is described as follows: SPR (ReDCaT). The conditions noted are these: 100 nM protein; HBS-EP+ (10 mM HEPES, 150 mM NaCl, 3 mM EDTA, 0.05% v/v Tween 20, pH 7.4), 20 C, Biacore 8K, ReDCaT SA chip; high values mean tight binding; recombinant protein; protein details: C-terminal TEV site + 6xHis; folded or branched DNA; counted as no binding.

The target of data set [4] is T4, RsmE (Pseudomonas fluorescens SBW25) (UniProt A0ACA7PAD1).
T4 sequence (looked up, limits assumed): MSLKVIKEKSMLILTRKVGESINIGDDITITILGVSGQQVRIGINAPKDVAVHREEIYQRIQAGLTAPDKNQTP
In words: SPR (ReDCaT). The settings on record: 100 nM protein; HBS-EP+ (10 mM HEPES, 150 mM NaCl, 3 mM EDTA, 0.05% v/v Tween 20, pH 7.4), 20 C, Biacore 8K, ReDCaT SA chip; high values mean tight binding; recombinant protein; protein details: His tag (pET28a NdeI/XhoI); folded or branched DNA; counted as no binding.

In data set [5] the test system is T1, RsmQ (Pseudomonas fluorescens SBW25 plasmid pQBR103). The data set is described as follows: SPR. The conditions noted are these: 100 nM protein, SPR (ReDCaT SA chip, Biacore 8K): 10 mM HEPES, 150 mM NaCl, 3 mM EDTA, 0.05% Tween 20, pH 7.4, 20 C, RsmQ 100 and 1000 nM (Fig 4: 100-1000 nM), recombinant protein, protein details: C-terminal TEV site + 6xHis, folded or branched DNA.

The test system of data set [6] is T2, RsmQ R44A (Pseudomonas fluorescens SBW25 plasmid pQBR103). In words: SPR. The settings on record: 100 nM protein; SPR (ReDCaT SA chip, Biacore 8K): 10 mM HEPES, 150 mM NaCl, 3 mM EDTA, 0.05% Tween 20, pH 7.4, 20 C; RsmQ 100 and 1000 nM (Fig 4: 100-1000 nM); recombinant protein; protein details: C-terminal TEV site + 6xHis; folded or branched DNA.
Data set [7] concerns T3, RsmQ H43A (Pseudomonas fluorescens SBW25 plasmid pQBR103). The data set is described as follows: SPR. The conditions noted are these: 100 nM protein; SPR (ReDCaT SA chip, Biacore 8K): 10 mM HEPES, 150 mM NaCl, 3 mM EDTA, 0.05% Tween 20, pH 7.4, 20 C; RsmQ 100 and 1000 nM (Fig 4: 100-1000 nM); recombinant protein; protein details: C-terminal TEV site + 6xHis; folded or branched DNA.

Data set [8] has as its target T5, RsmE (Pseudomonas fluorescens SBW25) (UniProt A0ACG8AC87).
T5 sequence (looked up, limits assumed): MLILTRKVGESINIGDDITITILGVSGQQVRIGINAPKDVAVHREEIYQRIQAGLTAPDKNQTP
In words: SPR. The settings on record: 100 nM protein, SPR (ReDCaT SA chip, Biacore 8K): 10 mM HEPES, 150 mM NaCl, 3 mM EDTA, 0.05% Tween 20, pH 7.4, 20 C, RsmQ 100 and 1000 nM (Fig 4: 100-1000 nM), recombinant protein, protein details: His tag (pET28a NdeI/XhoI), folded or branched DNA.

For CCGCGCACCAAGCGCAAAC [NoBind_HP], the binding signal in data set [1] (run beside RsmE) was -5.7 %Rmax; in data set [1] it was 0.606 %Rmax; in data set [2] it was -1.77 %Rmax; in data set [3], -2.17 %Rmax; in data set [4], -6.64 %Rmax.

Consider CCGCGCACCCAGCGCAAAC [NoBind_HP_2], for which the binding signal in data set [1] is 0.273 %Rmax; in data set [2], -1.89 %Rmax; in data set [3], -2.51 %Rmax; in data set [4] it was -5.81 %Rmax.

Regarding “CCGCGCACGGAAGCGCAAACCCTACCCTACGTCCTCCTGC [Full_Bind_HP (ACGGA hairpin)]”, the binding result in data set [5] was “binds”; in data set [6], “binds more weakly”; in data set [7], “binds more weakly”; in data set [8] (not effective), “binds more weakly”.

Consider “CCGCGCAGGAAGCGCAAACCCTACCCTACGTCCTCCTGC [Bind_HP (GGA hairpin)]”, for which the binding result in data set [6] and in data set [7] was “binds more weakly” throughout. Moreover, in data set [8] (mean of -5.99 and -6.16, counted as no binding), the binding signal was -6.07 %Rmax.

Consider “CCGCGCATGGAAGCGCAAACCCTACCCTACGTCCTCCTGC [FullBind_ATGGA_HP]”, for which the binding result in data set [5] (slight preference) and in data set [8] was “binds” in each case.
